The source of these data is publication PMC12431657, “Discovery and mechanistic insights of dibenzoylmethane as a broad spectrum inhibitor of coronavirus” (PLOS Pathogens, 2025).

Where two headings read alike, the source gives them in different places. About 60 (2%) of roughly 3,300 compounds showed an effect of 50% or more. The list shows a part of the results.

The assay relates to HCoV-OC43. Set-up: species or system RD; HTS, protection from HCoV-OC43 induced cell death, luminescent cell viability (CellCounting-Lite 2.0), inhibition rate. The note with it: 24 h post infection, 1 h compound pre-incubation, 10 µM, inhibitor.

Regarding `C[C@@H](CO)[C@@H]1CC[C@@]2(CC[C@]3(C)[C@H](CC[C@@H]4[C@@]5(C)CC[C@H](O[C@@H]6O[C@H](CO)[C@@H](O)[C@H](O)[C@H]6O[C@@H]6O[C@H](CO)[C@@H](O)[C@H](O)[C@H]6O)[C@@](C)(CO[C@@H]6O[C@H](CO)[C@@H](O)[C@H](O)[C@H]6O)[C@@H]5CC[C@]43C)[C@H]2O)CO1` [Hosenkoside A], the “OC43 Inhibition rate” value was -0.1%.

`CC1(C)CC[C@]2(C)CC[C@]3(C)C(=CC[C@@H]4[C@@]5(C)CC[C@H](O)C(C)(C)[C@@H]5CC[C@]43C)[C@@H]2C1` [β-Amyrin]: the “OC43 Inhibition rate” value is -0.2%. The same measure, in the same setting: as for `O=c1cc(-c2ccc(O)cc2)oc2cc(O)c([C@@H]3O[C@H](CO)[C@@H](O)[C@H](O)[C@H]3O)c(O)c12` [Isovitexin], the figure is 0.4%; as for `COC(=O)c1ccc(O)cn1` [Methyl 5-hydroxypyridine-2-carboxylate], -0.6%; as for `CC(C)(O)C1Cc2cc3cc(-c4cc(O)cc(O)c4)oc3cc2O1` (stereo not drawn) [Moracin O], 10.8%.

In the case of `COc1ccc(-c2oc3cc(O)cc(O)c3c(=O)c2O)cc1` [Kaempferide], the “OC43 Inhibition rate” value is reported as 0.6%.

Turning to `CC1=C(O)C(=O)C=C2C1=CC=C1[C@@]2(C)CC[C@@]2(C)[C@@H]3C[C@](C)(C(=O)O)CC[C@]3(C)CC[C@]12C` [Tripterin], the “OC43 Inhibition rate” value stood at 0.5%. On the same count and under the same terms, to `CC(C)C(N)CC(=O)O` (stereo not drawn) [3-Amino-4-methylpentanoic acid] belongs -0.4%. The same measure, in the same setting: to `C[C@@H]1O[C@@H](OC[C@H]2O[C@@H](Oc3cc(O)c4c(c3)O[C@H](c3ccc(O)cc3)CC4=O)[C@H](O)[C@@H](O)[C@@H]2O)[C@H](O)[C@H](O)[C@H]1O` [Narirutin] belongs -3.5%; to `C[C@@H]1O[C@@H](O[C@H]2[C@H](O[C@H]3CC[C@]4(C)[C@H]5CC=C6[C@@H]7CC(C)(C)CC[C@]7(C(=O)O)CC[C@@]6(C)[C@]5(C)CC[C@H]4C3(C)C)OC[C@H](O[C@@H]3O[C@H](CO)[C@@H](O)[C@H](O)[C@H]3O)[C@@H]2O)[C@H](O)[C@H](O)[C@H]1O` [Hederacolchiside A1], -2.9%. On the same count and under the same terms, as for `CC(=O)Oc1ccc(/C=C/c2cc(OC(C)=O)cc(OC(C)=O)c2)cc1` [Triacetylresveratrol], the figure is 1%; as for `CC1=CC(=O)CC(C)(C)C1` [Isophorone], -0.1%. `OCc1ccc(CO)o1` [2,5-Furandimethanol]: the “OC43 Inhibition rate” value is reported as 4.4%. As to `N[C@@H](CC(=O)O)C(=O)O` [L-Aspartic acid], the “OC43 Inhibition rate” value (OC43 Inhibition rate, 24 h) is reported as 0.2%. `Cc1ncc(CO)c(C(=O)O)c1O` [4-Pyridoxic acid]: the “OC43 Inhibition rate” value is reported as -0.3%.
